Out of some 320,000 compounds screened, about 480 (0.15%) were called active. Inconclusive means that the source gave no clear call. Such entries were picked first, then a sample of the others. Cut-off read from the data, not from the text of the source: active = inhibition above about 26% (passing the limit was not always enough); inconclusive = no clear call, values can overlap the other calls.
biological target: Histone deacetylase 3 (Homo sapiens) (UniProt O15379); experiment: HDAC3 deacetylase inhibitors, primary screen, biochemical, fluorescence, cell-free homogeneous (AID 2718); conditions: recombinant HDAC3, fluorogenic peptide/trypsin coupled, at 8.3 µM, active compounds read high

The chains behind the UniProt entries cited, without tags or fusion partners. Where a name states a change or a piece, a line headed by the entry shows the natural chain unless it says otherwise.
UniProt O15379: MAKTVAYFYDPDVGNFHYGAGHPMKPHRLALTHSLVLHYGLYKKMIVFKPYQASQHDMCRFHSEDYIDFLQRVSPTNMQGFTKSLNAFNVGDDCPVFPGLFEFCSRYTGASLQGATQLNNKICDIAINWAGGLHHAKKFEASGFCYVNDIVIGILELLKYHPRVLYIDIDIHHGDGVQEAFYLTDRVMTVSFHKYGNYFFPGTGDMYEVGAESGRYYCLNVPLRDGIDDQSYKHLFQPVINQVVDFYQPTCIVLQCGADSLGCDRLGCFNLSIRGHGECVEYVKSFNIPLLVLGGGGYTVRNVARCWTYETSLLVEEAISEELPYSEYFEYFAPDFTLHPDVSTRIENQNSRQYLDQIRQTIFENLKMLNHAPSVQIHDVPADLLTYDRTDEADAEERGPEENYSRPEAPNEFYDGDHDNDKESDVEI

SMILES	inhibition
NC(=O)[C@H]1CC2(CC(c3cccc(NC(=O)[C@H]4CCC(=O)N4)c3)=NO2)CN1C(=O)c1cc([N+](=O)[O-])cc([N+](=O)[O-])c1 (some centres not stated)	active: 39.1%
CC[C@]1(c2ccccc2)C(=O)N(C(=O)OC)N1C(=O)OC	active: 44.4%
CCOC(=O)C1CCCN(CC(=O)Nc2cc(C)cc(C)c2)C1 (configuration not stated)	inconclusive: 13.1%
O=C(Nc1nnc(S(=O)(=O)N2CCOCC2)s1)c1ccccc1Br	inconclusive: 10.9%
CCOC(=O)CSc1n[nH]c(NC(=O)NC(C)C)n1	inactive: -11.3%
CC1CCN(C(=O)c2ccccc2SCC(=O)NCC2CCCCC2)CC1	inactive: 2.51%
NC1=NC(=O)/C(=C\c2cccnc2)S1	inconclusive: 21.1%
C=CC[C@H](CC(=O)N(CCO)Cc1ccccc1)C(=O)N[C@H](COC(=O)[C@@H](CC=C)Cc1ccc(F)cc1)Cc1c[nH]c2ccccc12	active: 40.9%
CC(=O)NS(=O)(=O)c1ccc(NC(=O)CSc2ccc(Cl)cc2)cc1	inconclusive: 23.5%
O=C(NCc1nnc(SCC(=O)N2CCOCC2)o1)c1c(F)cccc1F	inconclusive: 12.1%
COC(=O)c1c(NC(=O)CCc2ccc(C)o2)sc(C)c1C	inactive: 15.8%
CN(C)S(=O)(=O)c1ccc(N2CCCC2)c(C(=O)N2CCC(C(N)=O)CC2)c1	inconclusive: 31.1%
CSc1ccccc1NC(=O)CN(C)CC(=O)Nc1ccc(Cl)cc1F	inconclusive: 21.4%
COC(=O)Cc1csc(N)n1	inconclusive: 17.3%
O=C(Cn1nnc2ccccc2c1=O)N1CCCc2ccccc21	inconclusive: 16.7%
CC(C)CCCCCCNC(=S)Nc1ccc(S(=O)(=O)N2CCOCC2)cc1	active: 29.4%
CCCC(=O)n1nc(-c2ccccc2)nc1SC	active: 32%
CCOCCCNC(=O)c1c(N)n(-c2ccc(S(N)(=O)=O)cc2)c2nc3ccccc3nc12	inactive: -10.1%
CCCOc1ccc(Cn2cnc3ccccc32)cc1	inconclusive: 17.7%

SMILES	inhibition
O=C(O)Cn1nnc(-c2cccs2)n1	inactive: -1.34%
CC(=O)Nc1ccc(S(=O)(=O)N2CCN=C2SCc2ccccc2C)cc1	inactive: 5.99%
CCC(C)NC(=O)[C@H]1N2C(=O)c3c(ccc(OC)c3OC)C2SC1(C)C (some centres not stated)	inconclusive: 15.7%
CCc1c(C)nc2ncnn2c1NCCc1ccc(OC)cc1	inactive: -1.48%
COc1ccc(NC2=C(C(C)=O)C(c3ccc(OC)cc3)C(C(C)=O)C(C)(O)C2)cc1 (configuration not stated)	inconclusive: 17.8%
CC(=O)Nc1c2c(nn1-c1ccc(F)cc1)CSC2	inconclusive: 12.2%
COc1cccc(-n2sc3c(c2=S)-c2cc(OC)ccc2NC3(C)C)c1	inconclusive: 20.4%
CC(=O)N1CCC(=NNc2nc3ccccc3s2)CC1	inactive: -10.2%
N/C(COc1cc(Cl)cc(Cl)c1)=N\O	inconclusive: 21.3%
CCc1[nH]nc2c1C(c1ccc(Br)s1)C(C#N)=C(N)O2 (configuration not stated)	inconclusive: 14.9%
O=C(NCc1ccccc1)NCc1cccs1	inactive: -0.0395%
Cc1ccc(-c2nc3ccccc3o2)cc1NC(=S)NC(=O)c1cccs1	inactive: -1.83%
Oc1ccc(/C=N/Nc2ccc3ccccc3c2)c(O)c1	inactive: 1.13%
C/C(Cc1ccccc1)=N/NC(=O)CNC(=O)C(c1ccccc1)c1ccccc1	inconclusive: 28.3%
CCCn1nnnc1SCC(=O)c1ccc2c(c1)OCCO2	active: 49.8%
COc1ccc(CCNC(=O)c2cc(-c3ccco3)on2)cc1OC	inactive: -0.442%
O=C(OCC(=O)c1c[nH]c2ccccc12)c1cc(S(=O)(=O)N2CCOCC2)ccc1F	inconclusive: 17.4%
O=C1NC(Cc2ccccc2)c2nc3ccc(Cl)cc3c(=O)n2-c2cc(Cl)ccc21 (configuration not stated)	inconclusive: 29.6%
CCOc1ccc(NS(=O)(=O)c2ccc(NC(=S)NC(=O)CC(C)C)cc2)cc1	inconclusive: 16.1%

Given bar-delimited: part of the list above
SMILES | inhibition
CC(=O)Nc1c2c(nn1-c1ccc(F)cc1)CSC2 | inconclusive: 12.2%
N/C(COc1cc(Cl)cc(Cl)c1)=N\O | inconclusive: 21.3%
CCc1[nH]nc2c1C(c1ccc(Br)s1)C(C#N)=C(N)O2 (configuration not stated) | inconclusive: 14.9%
O=C(OCC(=O)c1c[nH]c2ccccc12)c1cc(S(=O)(=O)N2CCOCC2)ccc1F | inconclusive: 17.4%

Continuation.

SMILES	inhibition
COc1ccccc1CNC(=O)COC(=O)c1ccccn1	inactive: -1.8%
Cc1cc(NC(=O)Nc2ccccc2[N+](=O)[O-])no1	inconclusive: 16.4%
CCc1sc(C(=O)Nc2ncccc2O)cc1C	active: 76%
CN1CCc2c(sc(NC(=O)c3ccc([N+](=O)[O-])o3)c2C(N)=O)C1	inconclusive: 12.2%
O=C(CN1C(=O)c2cccc3cccc1c23)N1CCN(c2cccc(Cl)c2)CC1	inconclusive: 11.5%
COC(=O)c1ccc(COc2cccc3c2CCN(Cc2cccc(C)c2)C3=O)o1	inactive: 1.59%
Cc1nn(C2CCS(=O)(=O)C2)c(C)c1CN(C)C(=O)c1ccc(Cl)cc1 (configuration not stated)	inactive: -2.47%
COC(=O)[C@@]12CCCCN1[C@H](c1ccc(-c3ccc(OC)cc3)c(OC)c1)[C@@H]1C(=O)N(C)C(=O)[C@@H]12	inactive: -3.48%
O=C(O)CNC(=O)C12CC3CC(CC(Cl)(C3)C1)C2	inconclusive: 14.5%
O=C(NCc1ccc(F)cc1)c1cc(C(=O)C2CC2)c[nH]1	inconclusive: 15.2%
CC(=O)c1cccc(NC(=O)N2CCCC2C(=O)Nc2ccccc2C)c1 (configuration not stated)	inconclusive: 14.4%
CCOC(=O)c1c(C)c(-c2ccccc2)n(CC(=O)NCCCN(CC)CC)c1C	inactive: 0.782%
CC(OC(=O)COc1cccc2c1OC(C)(C)C2)C(=O)Nc1ccc(S(N)(=O)=O)cc1 (configuration not stated)	inconclusive: 21.9%
CCOc1ccc(NC(=O)CN(C)C(=O)c2cc3c(s2)CCCCC3)cc1OCC	inactive: -2.22%
O=C(NCc1ccc(F)cc1)c1cccs1	inactive: -6.52%
Cc1ccc(COC(=O)c2cc(S(=O)(=O)N3CCOCC3)ccc2C)cc1	inactive: 9.12%
Cc1ccc(S(=O)(=O)N(C)C)cc1NC(=O)COc1ccc(-c2nnco2)cc1	inconclusive: 22.3%
O=C(COc1ccc(F)cc1Br)NCc1nnc2ccccn12	inactive: -3.37%
O=C(CCN1C(=O)c2ccccc2C1=O)C1=NN[C@@H]2C(=O)N(c3ccc4c(c3)OCCO4)C(=O)[C@H]12	inactive: 1.09%

Reference: PubChem BioAssay AID2718 (Broad Institute, 2010)
